Measurements published in PMC10128014.
These are yes or no findings as the source states them, for the method shown. In cells and extracts the contact can be indirect. Some results given as binding are weak or reduced against the parent protein; the word gives no strength. Tags and fused reporters may be left off the sequences shown.

Target: C. albicans Ent2 ENTH domain, wild type, C-terminally tagged with His6-FLAG3 (ENTH^WT-His6-FLAG3) (C. albicans)
Test: co-IP; lysates of C. albicans ent2Δ/ent2Δ cells grown at 30°C or 39°C; 2 mg total protein with anti-FLAG M2 agarose overnight at 4°C; 200 mM Na-HEPES pH 7.5, 100 mM KCl, 20% glycerol; blots with anti-FLAG (ENTH) and anti-GFP (Rga2)

binding: binds
B1: C. albicans Rga2, N-terminally tagged with GFP (GFP-Rga2) (protein, UniProt Q5AMQ3 1-1176)
chain: MPELVPPTNNRPHIHETPELSSQPSLDSNRQPRELCKKCNQLIVEGHAYELGDDRWHIHCFNCSKCNTSLGCNSNFLVLGNGNLICSNCSYNCKQCGRKIDDLAILTGDQAYCSNCFKCRSCKNKIEDLRYARTSKGLFCMDCHQKLMAKKKKYDAKKKHLALLQEKRVQLEREKDQRELQILEDHKRSVNSSRNSLIQSYMNNQNNQSGESLLYQQNNRSVTSVTSSKNKSLPLPPTSTSPARPTPYSANSYQSKESISGKNKTDTSLGSLSTSQTFSEHTNKGGSTMHSSTGLHNPPIFQSDNDFSIEEVQNSSDSDSNGDEKKSNSTSLRNKSSNRNSRVSPFVNQYSTPPLSSDHLNTDEISADTGERTVYLDVIDTPPESQADPLAGNQLKPALDVSPGRNTEQKSKSFLILSPNQFHDNEFHNTRSPMIDSPGTIISSNSNQNTKAVNLSVEDRPRSACPSPFAKVNRQARVVETNDEISTDGVDEDLAIGTPRQEHSRAGTLKSVSSPPPKVPLPSTPSRGEDISKKFSFVETPKGLGLEGVDYDNHEDQRSYIKSQQDQRQHDISEKTSPSSIMSTPKRVVGNFSPAVTNLEPKNSDLSNDQQHKHSQKNQNVSRTASLIKNLKHKRSTSGNQNKLAALFTTGSKEDHRNGHTRQTSDGSLFSSIANAYISPPITNGALGGRNHIRSTSDSTVLLSDEDHHYSNVAVKNDIEQLNSSKVLLEEDVKKLRDERHKLNEQLKMIQSKISSESIRYDNLVAEISELQIQKTKITNENKDLIEQQKNRQASGATGKLSTSSSNDSDPDASTLGKSVNTHLSPYKSSSDSTSVVSRENFEYSDHLSPDRHQGQFQQHQQYQQQYQQQQPQQQLIEDEQAHKATRLKFWRRPKVGTTQVISSNEYNNNGNGHNNGARIPNSFSTQALRIPAHNSGSSFNNNGANNNNQQNKFSKSKSSNVLDSLLSGDSSQVPLFNSTLQQRAEYEKSQVPIIITRCLAEVEKRGLDFEGIYRISGGNSAIVSIENAFSSLSNDPDEKQLNRVDETLDVDIHAVTSALKRYLRKLPDPVIPFDLYDDFIKVSTKASHSKEVRIAELQKIVNKLPPANRETLRLIVNHLHLVNSLKDINKMGYKNLSVVFAPTLAKDESGVKEMTDMGFRNDTTELLLTESHRIF
